Measurements taken from article PMC9001735, “Insights into the inhibition of type I-F CRISPR-Cas system by a multifunctional anti-CRISPR protein AcrIF24”.

Tests used:
Test in all cases: EMSA
[1] = tested on: AcrIF24 R196A (Pseudomonas aeruginosa prophage); settings: EMSA: 20 mM HEPES pH 7.5, 150 mM NaCl, 5% glycerol, 37 C 30 min, 1 uM DNA (20 nM for Kd), recombinant protein, protein details: N-terminal GPLGS remnant when expressed alone
[2] = tested on: AcrIF24 N194A (Pseudomonas aeruginosa prophage); settings: EMSA: 20 mM HEPES pH 7.5, 150 mM NaCl, 5% glycerol, 37 C 30 min, 1 uM DNA (20 nM for Kd), recombinant protein, protein details: N-terminal GPLGS remnant
AcrIF9 = AcrIF9 alone, EMSA: 20 mM HEPES pH 7.5, 150 mM NaCl, 5% glycerol, 37 C 30 min, 1 uM DNA (20 nM for Kd), recombinant protein, protein details: His6 (pET28a) when expressed alone
[3] = tested on: AcrIF24 K197A (Pseudomonas aeruginosa prophage); settings: EMSA: 20 mM HEPES pH 7.5, 150 mM NaCl, 5% glycerol, 37 C 30 min, 1 uM DNA (20 nM for Kd), recombinant protein, protein details: N-terminal GPLGS remnant when expressed alone
[4] = tested on: AcrIF24 (Pseudomonas aeruginosa prophage); settings: EMSA: 20 mM HEPES pH 7.5, 150 mM NaCl, 5% glycerol, 37 C 30 min, 1 uM DNA (20 nM for Kd), recombinant protein
[5] = decreased vs WT, legend: fails to interact, label: 5'-FAM or 3'-FAM, unlabelled as competitor
[6] = decreased vs WT, legend: fails to interact

GAGCGACTACGACATGAGCGCGCAGCTAAGACCGCCCGTAGATGCGTCGAGCGT (double strand) [dsDNANS 54 bp]
binding result [1, 5]: binds more weakly | binding result ([2]; same weak binding as WT AcrIF24, label: 5'-FAM or 3'-FAM, unlabelled as competitor): binds more weakly | binding result (AcrIF9; label: 5'-FAM or 3'-FAM, unlabelled as competitor): no binding | binding result [3, 5]: binds more weakly

GCAAAGGTCCATCGGACCTTGTA (double strand) [IR23-24 mutated]
binding result ([4]; label: 5'-FAM): binds more weakly

GCATAGCTCGATCCGAGCTAGTA (double strand) [IR23-24 WT]
binding result ([1]; label: 5'-FAM): binds more weakly | binding result ([2]; label: 5'-FAM): binds more weakly | binding result ([3]; label: 5'-FAM): binds more weakly

GGAAGCCATCCAGGTAGACGCGGACATCAAGCCCGCCGTGAAGGTGCAGCTGCT (double strand) [dsDNASP 54 bp]
binding result [1, 6]: binds more weakly | binding result ([2]; same weak binding as WT AcrIF24): binds more weakly | binding result (AcrIF9): no binding | binding result [4]: binds more weakly | binding result [3, 6]: binds more weakly

For at least one entry, the source does not settle the construct or the ends of the probe. For some of these results: Negatives hold for the conditions tested. For some of these results: The comparison behind a weaker result is the experiment's own reference, which may not be listed here. For some of these results: At least one verdict was read from the data and is not stated in words by the source.
